Results as given in the RNAGym collection of RNA variant scans (doi:10.1126/science.aae0568).
This sample is rich in variants without activity.

B1: tRNA (parent)
chain: GUUCCGUUGGCGUAAUGGUAACGCGUCUCCCUCCUAAGGAGAAGACUGCGGGUUCGAGUCCCGUACGGAACG

Variants of: B1
Experiment: yeast fitness relative to wild type (ratio to wild type); higher = fitter; tRNA-Arg(CCU), competitive growth, 37 C, YPD
Procedure, shortened: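 Amplicons of the tRNA-Arg(CCU) gene were sequenced, 100-nucleotide paired-end, from the start population and from each end population of a pooled yeast competition. The competition, in six parallel replicates, lasted 24 hours in YPD at 37°C. Fitness relative to wild type was calculated from changes in genotype frequencies. Genotypes had to have ≥ 100 starting reads, and estimates < 0.5 were set to 0.5.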
For U7A G10A A20C C29A C55G G63C, the yeast fitness was ≤ 0.5. For U2G A14C C27U U35A C61G, the yeast fitness was ≤ 0.5. In the case of C4U A42C A45G C66A, the yeast fitness is reported as ≤ 0.5. For G6C C31G C61G A69G, the yeast fitness was ≤ 0.5. In the case of C11G A14C U19C C30G A45G U53C, the yeast fitness is reported as ≤ 0.5. With A15U C27U C34U A42U the yeast fitness was ≤ 0.5. In the case of G9C C11U G48C C62G A65U, the yeast fitness is reported as ≤ 0.5. With G12A C66A G67A the yeast fitness was ≤ 0.5. In the case of A15U C22G C31U G50A, the yeast fitness is reported as ≤ 0.5. With G23C C61G G67A G68C the yeast fitness was ≤ 0.5. C5U A14G A65U G67A gave a yeast fitness of 0.689. U2G C11U A20C A70C gave a yeast fitness of 0.667. With C5U C24A A45G C61G C62U the yeast fitness was ≤ 0.5. For U2G A21C C33A, the yeast fitness was ≤ 0.5. In the case of G17C A20G A57G C62U, the yeast fitness is reported as ≤ 0.5. For G9A U16A C34A G50C, the yeast fitness was ≤ 0.5. For C11A U32A C33U U47A U59C, the yeast fitness was ≤ 0.5. With C5G G23A C29U A70C the yeast fitness was ≤ 0.5. For A36C U53C C62U, the yeast fitness was ≤ 0.5. For U2G C34G C49G U54A A57C G68A, the yeast fitness was ≤ 0.5. For C4A U19G A70C, the yeast fitness was 0.854. In the case of C4U C31U C55A, the yeast fitness is reported as ≤ 0.5. With C30G C33G C34U A42U the yeast fitness was ≤ 0.5. With G10C U47A A70C the yeast fitness was ≤ 0.5. With G10A U13A C29U C49G the yeast fitness was ≤ 0.5. With C27G C66U A69U the yeast fitness was ≤ 0.5. In the case of C4U U26C A36C U64A, the yeast fitness is reported as ≤ 0.5. G41C A69U A70U showed a yeast fitness of 0.629. With C11U C31U U64A A70G the yeast fitness was ≤ 0.5. In the case of G12U C46U A57C C60G, the yeast fitness is reported as ≤ 0.5. For C24A G39C U47A, the yeast fitness was ≤ 0.5. In the case of U8A C24U U28C A40C, the yeast fitness is reported as ≤ 0.5. In the case of C33G A37G C66A, the yeast fitness is reported as ≤ 0.5. For C11A G44C G67C, the yeast fitness was ≤ 0.5. Variant A37C C46U A69U has a yeast fitness of 0.7. In the case of G12A C33G U35C U59A A69U, the yeast fitness is reported as ≤ 0.5. For A21C G23C C60A, the yeast fitness was ≤ 0.5. In the case of U3C G9A A15U C30A A42G, the yeast fitness is reported as 0.506. With A21G A36C A37U C62G A69U the yeast fitness was ≤ 0.5. For A20G C34U A40U C61G, the yeast fitness was ≤ 0.5. With C4A A15G G56C A69U the yeast fitness was ≤ 0.5. In the case of C11G G51A U53C, the yeast fitness is reported as ≤ 0.5. G25C G58C A65U showed a yeast fitness of 0.928. For C5U A14U U16A C34A C66U, the yeast fitness was ≤ 0.5. A15U C24A C34G G39U A65G gave a yeast fitness of 0.651. With C29G U47G A70U the yeast fitness was ≤ 0.5. For C5G A21G C27G C34G A43C C46G, the yeast fitness was ≤ 0.5. For A14C A37G G52A C55G, the yeast fitness was ≤ 0.5. With G10U G18C A21G the yeast fitness was ≤ 0.5. In the case of U32G A45G C49U A70U, the yeast fitness is reported as ≤ 0.5. With U2C A14G U28G C29U A57C the yeast fitness was ≤ 0.5. With C11A U16C C31U the yeast fitness was ≤ 0.5. Variant U19A U26A C29A C46G U54A has a yeast fitness of 0.603. G17C gave a yeast fitness of 0.7. In the case of C11G C27U U53A U59A, the yeast fitness is reported as ≤ 0.5. In the case of C5A U13A A45C A65U, the yeast fitness is reported as ≤ 0.5. With U8A A42C G51A C61U the yeast fitness was ≤ 0.5. For U8G C11G C34A G58C, the yeast fitness was ≤ 0.5. In the case of G12A U13G U19C A21G C55U, the yeast fitness is reported as ≤ 0.5. In the case of C5A C11G A14U A20U C49U, the yeast fitness is reported as ≤ 0.5. In the case of C24G A37U U47A U59A, the yeast fitness is reported as ≤ 0.5. With G9A C49A A57U the yeast fitness was ≤ 0.5. In the case of G25C C29A A70U, the yeast fitness is reported as ≤ 0.5. For G9A G10A U54A, the yeast fitness was ≤ 0.5. In the case of A14U G51C, the yeast fitness is reported as ≤ 0.5. With U3A A14G G48C the yeast fitness was ≤ 0.5. Variant C5G G25A has a yeast fitness of 0.981. In the case of A20U C29U U53A, the yeast fitness is reported as ≤ 0.5. With C55U C61A A70U the yeast fitness was ≤ 0.5. For C24G U32C A37C, the yeast fitness was ≤ 0.5. With U13A G18C A20C U35G A69U the yeast fitness was ≤ 0.5. With C4A C49G C62U the yeast fitness was ≤ 0.5. For G6C C11G A15C G25C C27G C30G G38C U47A C60G A70G, the yeast fitness was ≤ 0.5. In the case of C4A U16C U35G A45U G51A, the yeast fitness is reported as ≤ 0.5. With G12A U13A C29G A43G the yeast fitness was ≤ 0.5. For U7A A20G C34A G56C, the yeast fitness was ≤ 0.5. For U2C A42C G63A C66U, the yeast fitness was ≤ 0.5. C5U U35A A45C gave a yeast fitness of 0.602. For A42G G68C A69G, the yeast fitness was 0.563. In the case of U54C C60G, the yeast fitness is reported as 0.539. For G10A A14U U54G, the yeast fitness was ≤ 0.5. With G18A U19A G23C the yeast fitness was ≤ 0.5. Variant A21U A57U has a yeast fitness of 0.61. In the case of C11U, the yeast fitness is reported as 1.01.
